Results as given in patent US20190022091A1, “METHOD OF TREATMENT FOR MENTAL DISORDERS” (SUMITOMO DAINIPPON PHARMA CO., LTD., priority 2010, published 2019).
At least one compound was matched to its structure with a doubt left.

System: common marmosets
Assay: ORD test (object retrieval with detour test) in marmosets
Format: in vivo, common marmoset
Settings: single oral administration, test 2 hours after administration vs before; FIG. 2-6
Experimental: ORD test (object retrieval with detour test) is already reported as a method for evaluating executive function (attention function/impulsiveness) in primates.
Male and female common marmosets having body weights of 250-450 g were used. Haloperidol, clozapine, olanzapine, risperidone, and lurasidone hydrochloride were separately suspended in 0.5% methylcellulose (MC), and then each suspension was orally administered in a dose of 5 mL/kg to the marmosets. On the other hand, L-745,870 which is a D4 antagonist, and Ro 10-5824 which is a D4 agonist were separately dissolved in saline, and then each solution was intramuscularly administered to the femoris area in a dose of 0.5 mL/kg.
According to the method described in the literature (Psychopharmacology (2006) 196: 643-648) which was partially modified, the ORD test was carried out as follows (see FIG. 1).
In each of the boxes, 0.3-0.5 g of Baumkuchen as a food reward is placed at the point of each triangle in FIG. 1. […] It is recorded as “correct” when the test animal can obtain the reward in one trial, while it is recorded as “incorrect” when the animal can obtain the reward in the second trial or later. […]
(3) The variation of correct % in the Difficult task is calculated according to the following formula in order to evaluate the effect of each drug. […]

In the case of `CN1CCN(C2=Nc3cc(Cl)ccc3Nc3ccccc32)CC1` [clozapine], the “variation of the correct % of the ORD test (difficult task)” value is reported as “decreased the correct % of the ORD test in a dose-dependent manner”.
